Strings that start with PEPTIDE1 are HELM notation: dots part the residues, brackets hold end groups and non-standard residues.
Test: general procedure: Fmoc solid-phase peptide synthesis; Rink amide MBHA; DIC/HOBt
Settings: whole synthesis, scale 5 mmoles

**Q.** For “PEPTIDE1{[caph9ccb84].L.D.F.[dP].[am]}$$$$V2.0”, which isolated mass is on record?
**A.** 1.8 g

Reference: patent US5688913A (Cytel Corporation, priority 1995, dated 1997)
